Results are given in words; binding and its absence hold for the method and conditions named. In cells and extracts the contact can be indirect. Some entries that bind do so weakly or less than the wild type.
Biological target: Flag-tagged apoptotic protease-activating factor 1 (Apaf1) (UniProt O14727)
Test: co-IP; Flag- and HA-tagged proteins co-expressed in HEK-293T; lysis in 50 mM Tris-HCl pH 7.4, 150 mM NaCl, 1 mM EDTA, 0.2% Triton X-100; anti-Flag M2 agarose, 2 h, 4°C; blots for HA and FLAG

Chains of the proteins cited; added tags and fusions are not shown.
UniProt O14727: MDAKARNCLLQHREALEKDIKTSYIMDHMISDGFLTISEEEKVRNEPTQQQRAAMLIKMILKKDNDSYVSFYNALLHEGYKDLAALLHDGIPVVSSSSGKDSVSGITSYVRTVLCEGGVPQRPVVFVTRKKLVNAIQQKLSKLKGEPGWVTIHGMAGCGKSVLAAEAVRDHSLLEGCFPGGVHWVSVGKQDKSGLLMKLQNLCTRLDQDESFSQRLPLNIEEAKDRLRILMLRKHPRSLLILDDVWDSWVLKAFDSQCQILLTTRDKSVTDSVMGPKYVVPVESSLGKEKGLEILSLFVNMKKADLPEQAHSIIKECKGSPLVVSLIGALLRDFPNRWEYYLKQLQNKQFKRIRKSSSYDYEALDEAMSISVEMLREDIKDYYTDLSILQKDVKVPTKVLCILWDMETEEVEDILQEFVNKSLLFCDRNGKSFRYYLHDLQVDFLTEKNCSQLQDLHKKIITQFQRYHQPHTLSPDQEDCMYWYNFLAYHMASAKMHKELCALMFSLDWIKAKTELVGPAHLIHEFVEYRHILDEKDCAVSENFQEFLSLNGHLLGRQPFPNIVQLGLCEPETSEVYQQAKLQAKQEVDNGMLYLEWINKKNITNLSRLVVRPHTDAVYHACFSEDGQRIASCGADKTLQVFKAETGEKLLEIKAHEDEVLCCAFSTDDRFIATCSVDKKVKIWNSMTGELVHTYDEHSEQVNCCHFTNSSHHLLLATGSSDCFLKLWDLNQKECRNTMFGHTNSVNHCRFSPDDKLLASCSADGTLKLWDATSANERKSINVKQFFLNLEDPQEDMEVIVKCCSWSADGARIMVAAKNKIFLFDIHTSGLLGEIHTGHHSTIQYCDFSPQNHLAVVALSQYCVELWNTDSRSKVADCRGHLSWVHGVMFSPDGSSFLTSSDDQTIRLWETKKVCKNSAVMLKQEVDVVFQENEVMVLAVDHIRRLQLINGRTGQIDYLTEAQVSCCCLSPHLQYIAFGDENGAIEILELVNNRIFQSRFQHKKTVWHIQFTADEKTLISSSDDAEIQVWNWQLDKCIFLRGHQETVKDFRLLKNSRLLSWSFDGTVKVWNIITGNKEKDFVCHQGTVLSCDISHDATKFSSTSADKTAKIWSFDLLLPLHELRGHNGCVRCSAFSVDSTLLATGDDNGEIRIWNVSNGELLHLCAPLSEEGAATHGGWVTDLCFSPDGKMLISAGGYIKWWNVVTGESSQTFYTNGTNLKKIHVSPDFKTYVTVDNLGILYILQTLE
UniProt P99999: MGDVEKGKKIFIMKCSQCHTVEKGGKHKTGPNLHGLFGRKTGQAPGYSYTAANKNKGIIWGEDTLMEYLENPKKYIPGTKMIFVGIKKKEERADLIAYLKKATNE

Substance: HA-tagged cytochrome C (Cytc) (from UniProt P99999 1-105)
- binding: binds

— publication PMC12313710, “Targeting the BAG2/CHIP axis promotes gastric cancer apoptosis by blocking apoptosome assembly” (Frontiers in Immunology, 2025)
